Assay results taken from the supplement of paper PMC12067093, “Discovery and optimisation of a covalent ligand for TRIM25 and its application to targeted protein ubiquitination” (Chemical Science, 2025).
The list shows a part of the results.

The chains behind the UniProt entries cited, without tags or fusion partners. Where a name states a change or a piece, a line headed by the entry shows the natural chain unless it says otherwise.
UniProt Q99575: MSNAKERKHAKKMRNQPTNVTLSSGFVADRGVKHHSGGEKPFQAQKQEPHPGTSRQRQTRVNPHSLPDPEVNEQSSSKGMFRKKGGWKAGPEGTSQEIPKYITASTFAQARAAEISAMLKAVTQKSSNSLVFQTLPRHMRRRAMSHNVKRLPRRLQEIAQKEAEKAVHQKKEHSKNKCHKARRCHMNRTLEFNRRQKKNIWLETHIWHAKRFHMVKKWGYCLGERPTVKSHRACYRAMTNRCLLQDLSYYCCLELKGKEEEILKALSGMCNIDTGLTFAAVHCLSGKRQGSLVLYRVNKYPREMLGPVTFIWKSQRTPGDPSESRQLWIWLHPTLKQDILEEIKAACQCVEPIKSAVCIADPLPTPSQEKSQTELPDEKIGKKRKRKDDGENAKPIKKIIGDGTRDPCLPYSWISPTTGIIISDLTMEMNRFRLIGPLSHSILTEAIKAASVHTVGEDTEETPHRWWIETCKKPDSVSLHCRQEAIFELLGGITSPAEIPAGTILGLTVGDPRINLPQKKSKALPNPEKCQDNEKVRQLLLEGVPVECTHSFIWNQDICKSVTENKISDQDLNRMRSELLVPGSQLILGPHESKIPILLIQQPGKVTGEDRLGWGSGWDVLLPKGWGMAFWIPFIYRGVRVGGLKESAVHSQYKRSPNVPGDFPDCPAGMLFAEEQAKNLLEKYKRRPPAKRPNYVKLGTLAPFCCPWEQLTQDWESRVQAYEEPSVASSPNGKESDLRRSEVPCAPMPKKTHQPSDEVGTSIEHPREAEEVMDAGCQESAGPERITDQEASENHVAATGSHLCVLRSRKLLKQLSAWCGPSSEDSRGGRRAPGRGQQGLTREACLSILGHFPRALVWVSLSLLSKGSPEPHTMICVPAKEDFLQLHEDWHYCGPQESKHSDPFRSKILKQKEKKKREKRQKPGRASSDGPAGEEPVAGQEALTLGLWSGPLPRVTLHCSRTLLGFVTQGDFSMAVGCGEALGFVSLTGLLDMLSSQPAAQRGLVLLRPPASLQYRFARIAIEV
UniProt Q9GZS1, whole entry, looked up: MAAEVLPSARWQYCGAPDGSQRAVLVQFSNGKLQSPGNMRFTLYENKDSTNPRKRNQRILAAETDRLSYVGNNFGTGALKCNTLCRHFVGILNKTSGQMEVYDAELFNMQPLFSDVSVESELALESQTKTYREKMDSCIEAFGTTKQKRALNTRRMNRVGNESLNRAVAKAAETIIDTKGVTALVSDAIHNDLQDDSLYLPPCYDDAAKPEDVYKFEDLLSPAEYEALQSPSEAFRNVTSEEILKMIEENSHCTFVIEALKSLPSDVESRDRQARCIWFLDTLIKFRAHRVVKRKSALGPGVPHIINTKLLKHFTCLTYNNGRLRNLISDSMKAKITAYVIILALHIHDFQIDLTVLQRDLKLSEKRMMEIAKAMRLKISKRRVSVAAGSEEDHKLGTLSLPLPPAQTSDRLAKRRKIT
UniProt Q08752, whole entry, looked up: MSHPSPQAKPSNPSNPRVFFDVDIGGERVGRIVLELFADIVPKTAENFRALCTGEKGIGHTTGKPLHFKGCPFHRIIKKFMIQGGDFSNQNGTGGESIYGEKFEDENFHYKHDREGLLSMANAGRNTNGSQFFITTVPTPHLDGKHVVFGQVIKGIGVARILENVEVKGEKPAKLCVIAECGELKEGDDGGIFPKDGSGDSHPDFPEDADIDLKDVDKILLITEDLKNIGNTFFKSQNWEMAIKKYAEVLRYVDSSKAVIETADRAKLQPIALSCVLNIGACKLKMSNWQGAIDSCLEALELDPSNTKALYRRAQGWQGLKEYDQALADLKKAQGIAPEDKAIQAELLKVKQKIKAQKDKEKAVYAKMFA
UniProt Q15181: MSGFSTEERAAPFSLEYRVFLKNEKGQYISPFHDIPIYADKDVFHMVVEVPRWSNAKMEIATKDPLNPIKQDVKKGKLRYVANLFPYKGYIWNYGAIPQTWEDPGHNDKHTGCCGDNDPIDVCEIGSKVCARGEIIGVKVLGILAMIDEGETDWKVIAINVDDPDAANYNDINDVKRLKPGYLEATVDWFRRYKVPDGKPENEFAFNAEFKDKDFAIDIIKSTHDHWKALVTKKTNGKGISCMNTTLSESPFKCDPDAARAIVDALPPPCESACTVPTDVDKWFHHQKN
UniProt P0DPB6, whole entry, looked up: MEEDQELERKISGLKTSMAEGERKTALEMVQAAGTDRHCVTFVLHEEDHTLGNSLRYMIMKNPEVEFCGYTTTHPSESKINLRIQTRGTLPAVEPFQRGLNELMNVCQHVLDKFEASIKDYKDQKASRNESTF
UniProt P30405: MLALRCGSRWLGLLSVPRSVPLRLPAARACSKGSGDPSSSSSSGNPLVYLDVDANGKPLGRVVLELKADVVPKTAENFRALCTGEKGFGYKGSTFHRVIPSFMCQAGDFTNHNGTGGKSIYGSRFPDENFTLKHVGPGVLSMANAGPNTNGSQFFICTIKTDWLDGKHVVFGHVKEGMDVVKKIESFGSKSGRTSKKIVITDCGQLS
UniProt Q9H9Y6, whole entry, looked up: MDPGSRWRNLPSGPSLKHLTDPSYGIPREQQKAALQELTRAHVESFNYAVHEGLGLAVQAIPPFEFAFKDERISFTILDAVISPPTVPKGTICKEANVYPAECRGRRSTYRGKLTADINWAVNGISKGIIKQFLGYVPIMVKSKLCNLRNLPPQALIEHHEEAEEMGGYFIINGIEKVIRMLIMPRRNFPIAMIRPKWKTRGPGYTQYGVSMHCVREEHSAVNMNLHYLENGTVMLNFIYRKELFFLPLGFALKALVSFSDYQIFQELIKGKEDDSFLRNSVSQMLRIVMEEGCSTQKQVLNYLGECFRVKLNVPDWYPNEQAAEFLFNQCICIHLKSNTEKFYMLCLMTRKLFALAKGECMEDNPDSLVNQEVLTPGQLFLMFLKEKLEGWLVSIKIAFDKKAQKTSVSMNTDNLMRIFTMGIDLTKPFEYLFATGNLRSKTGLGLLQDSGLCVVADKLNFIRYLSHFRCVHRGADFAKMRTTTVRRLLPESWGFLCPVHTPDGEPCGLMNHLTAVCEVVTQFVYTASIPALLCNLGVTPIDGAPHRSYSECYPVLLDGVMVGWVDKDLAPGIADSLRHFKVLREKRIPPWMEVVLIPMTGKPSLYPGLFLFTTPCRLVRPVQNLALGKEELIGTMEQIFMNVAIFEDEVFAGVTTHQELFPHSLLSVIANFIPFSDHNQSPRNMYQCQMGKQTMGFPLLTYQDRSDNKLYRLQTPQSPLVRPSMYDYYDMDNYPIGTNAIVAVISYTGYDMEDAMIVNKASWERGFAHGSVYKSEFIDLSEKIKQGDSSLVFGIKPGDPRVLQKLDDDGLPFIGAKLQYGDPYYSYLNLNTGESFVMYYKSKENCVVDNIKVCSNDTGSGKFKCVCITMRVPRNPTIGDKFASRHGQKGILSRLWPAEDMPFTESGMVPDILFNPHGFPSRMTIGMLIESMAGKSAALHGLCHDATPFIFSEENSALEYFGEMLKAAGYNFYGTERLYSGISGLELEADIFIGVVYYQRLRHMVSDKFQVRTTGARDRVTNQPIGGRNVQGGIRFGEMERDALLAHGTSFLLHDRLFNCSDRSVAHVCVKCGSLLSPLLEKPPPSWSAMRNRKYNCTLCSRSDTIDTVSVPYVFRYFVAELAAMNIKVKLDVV
UniProt Q15054: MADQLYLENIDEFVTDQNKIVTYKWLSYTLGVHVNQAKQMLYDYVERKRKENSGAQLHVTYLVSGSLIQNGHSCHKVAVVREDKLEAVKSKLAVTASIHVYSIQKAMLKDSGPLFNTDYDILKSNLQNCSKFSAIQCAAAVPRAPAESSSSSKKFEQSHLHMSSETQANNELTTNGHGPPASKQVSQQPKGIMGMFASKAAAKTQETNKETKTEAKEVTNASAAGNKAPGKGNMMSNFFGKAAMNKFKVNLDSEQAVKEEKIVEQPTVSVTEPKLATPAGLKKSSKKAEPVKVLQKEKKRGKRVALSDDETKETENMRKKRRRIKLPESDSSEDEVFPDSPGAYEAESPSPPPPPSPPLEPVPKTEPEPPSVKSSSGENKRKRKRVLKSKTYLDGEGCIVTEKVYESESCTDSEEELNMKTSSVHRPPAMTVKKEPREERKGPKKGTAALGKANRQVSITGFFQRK
UniProt Q7Z3K3: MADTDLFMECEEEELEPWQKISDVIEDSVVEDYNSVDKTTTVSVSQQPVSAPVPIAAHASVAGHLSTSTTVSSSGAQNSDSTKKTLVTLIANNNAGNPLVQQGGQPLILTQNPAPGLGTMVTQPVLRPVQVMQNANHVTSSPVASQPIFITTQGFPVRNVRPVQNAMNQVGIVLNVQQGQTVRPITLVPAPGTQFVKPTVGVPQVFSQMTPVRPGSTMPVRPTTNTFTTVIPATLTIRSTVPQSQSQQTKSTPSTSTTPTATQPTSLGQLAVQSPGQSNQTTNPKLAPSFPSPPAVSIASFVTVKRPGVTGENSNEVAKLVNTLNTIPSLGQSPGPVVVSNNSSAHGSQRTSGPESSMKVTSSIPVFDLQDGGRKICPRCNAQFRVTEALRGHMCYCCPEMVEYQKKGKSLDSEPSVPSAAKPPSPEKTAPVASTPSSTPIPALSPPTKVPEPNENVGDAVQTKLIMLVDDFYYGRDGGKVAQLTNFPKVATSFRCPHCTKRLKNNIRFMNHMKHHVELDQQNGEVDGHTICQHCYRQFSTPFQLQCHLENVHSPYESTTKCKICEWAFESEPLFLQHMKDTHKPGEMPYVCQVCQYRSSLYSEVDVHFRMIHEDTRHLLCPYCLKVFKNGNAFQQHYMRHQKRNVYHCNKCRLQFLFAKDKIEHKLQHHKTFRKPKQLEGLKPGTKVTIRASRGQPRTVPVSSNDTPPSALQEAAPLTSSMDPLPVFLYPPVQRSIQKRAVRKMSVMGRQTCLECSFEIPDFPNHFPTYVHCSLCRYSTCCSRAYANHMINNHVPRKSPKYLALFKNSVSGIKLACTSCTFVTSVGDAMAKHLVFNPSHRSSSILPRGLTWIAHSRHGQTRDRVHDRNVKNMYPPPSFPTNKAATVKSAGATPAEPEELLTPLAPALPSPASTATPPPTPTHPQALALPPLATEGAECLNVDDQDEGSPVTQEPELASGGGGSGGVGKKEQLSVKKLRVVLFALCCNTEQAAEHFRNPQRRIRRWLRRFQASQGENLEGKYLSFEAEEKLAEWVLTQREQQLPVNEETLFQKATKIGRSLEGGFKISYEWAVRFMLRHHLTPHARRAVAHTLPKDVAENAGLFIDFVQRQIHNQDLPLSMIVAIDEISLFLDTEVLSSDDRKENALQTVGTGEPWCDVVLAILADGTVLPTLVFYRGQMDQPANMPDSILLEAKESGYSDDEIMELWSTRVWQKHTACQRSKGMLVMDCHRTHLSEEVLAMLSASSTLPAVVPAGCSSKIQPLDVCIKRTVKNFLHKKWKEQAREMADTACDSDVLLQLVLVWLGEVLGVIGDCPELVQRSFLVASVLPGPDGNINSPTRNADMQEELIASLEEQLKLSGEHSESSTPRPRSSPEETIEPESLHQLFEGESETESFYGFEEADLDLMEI
UniProt P28340: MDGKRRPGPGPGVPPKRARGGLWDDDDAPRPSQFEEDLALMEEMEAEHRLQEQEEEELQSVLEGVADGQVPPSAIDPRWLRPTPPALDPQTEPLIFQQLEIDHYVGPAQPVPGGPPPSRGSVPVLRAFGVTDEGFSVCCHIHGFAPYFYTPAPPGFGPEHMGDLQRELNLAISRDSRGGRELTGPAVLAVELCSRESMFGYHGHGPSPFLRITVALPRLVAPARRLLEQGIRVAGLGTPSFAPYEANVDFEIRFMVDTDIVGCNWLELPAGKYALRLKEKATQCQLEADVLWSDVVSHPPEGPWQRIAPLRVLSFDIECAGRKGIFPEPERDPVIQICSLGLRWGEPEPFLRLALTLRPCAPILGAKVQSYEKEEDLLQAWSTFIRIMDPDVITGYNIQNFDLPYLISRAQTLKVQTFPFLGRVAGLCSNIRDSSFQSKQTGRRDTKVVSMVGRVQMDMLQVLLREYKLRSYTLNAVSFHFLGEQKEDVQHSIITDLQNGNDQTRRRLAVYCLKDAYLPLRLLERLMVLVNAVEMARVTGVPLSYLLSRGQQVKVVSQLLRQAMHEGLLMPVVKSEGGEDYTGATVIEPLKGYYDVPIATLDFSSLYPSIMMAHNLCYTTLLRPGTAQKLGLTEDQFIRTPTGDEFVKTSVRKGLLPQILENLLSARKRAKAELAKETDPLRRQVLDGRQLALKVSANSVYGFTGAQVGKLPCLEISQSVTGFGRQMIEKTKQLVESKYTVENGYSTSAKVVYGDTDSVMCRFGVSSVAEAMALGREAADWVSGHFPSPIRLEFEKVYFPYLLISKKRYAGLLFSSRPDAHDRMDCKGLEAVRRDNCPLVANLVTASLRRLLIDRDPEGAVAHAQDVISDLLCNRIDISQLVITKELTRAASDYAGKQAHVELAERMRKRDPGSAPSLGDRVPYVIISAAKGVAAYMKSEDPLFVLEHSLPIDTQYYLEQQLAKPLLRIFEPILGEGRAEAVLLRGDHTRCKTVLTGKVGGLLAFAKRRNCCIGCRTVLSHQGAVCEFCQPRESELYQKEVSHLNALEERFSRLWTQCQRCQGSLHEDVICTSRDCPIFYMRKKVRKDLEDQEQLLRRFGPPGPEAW

Compound: Cc1cc(ccc1-c1ccccc1)C(=O)N1CCCN(CC1)C(=O)CCl [compound 10]
Experiment: probe-labelled cysteine peptide fold change vs DMSO (competition) (log2 fold change); higher = less target engagement (more negative = stronger competition)
Conditions: THP-1, incubation time: 4 h
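Also: competitive profiling in live THP-1 cells: cysteine peptides tagged with an iodoacetamide desthiobiotin (IA-DTB) probe, intensity after compound treatment relative to DMSO-treated cells.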

POLR3E_Q9NVU0_553_AAGTDSFNGHPPQGCASTPVAR (UniProt Q9NVU0)
probe-labelled cysteine peptide fold change (10 µM): -0.173
probe-labelled cysteine peptide fold change (50 µM): -0.388

POLDIP2_Q9Y2S7_143_DCPHISQR (UniProt Q9Y2S7)
probe-labelled cysteine peptide fold change (10 µM): -0.119
probe-labelled cysteine peptide fold change (50 µM): -0.779

POM121C_A8CG34_245_MVCSPVTVR (UniProt A8CG34)
probe-labelled cysteine peptide fold change (10 µM): 0.0592
probe-labelled cysteine peptide fold change (50 µM): -0.232

POFUT1_Q9H488_249_NACAMLK (UniProt Q9H488)
probe-labelled cysteine peptide fold change (10 µM): -0.308
probe-labelled cysteine peptide fold change (50 µM): -0.164

POLA2_Q14181_590_QSPCIAVQVVR (UniProt Q14181)
probe-labelled cysteine peptide fold change (10 µM): 0.263
probe-labelled cysteine peptide fold change (50 µM): -0.19

POP1_Q99575_481_KPDSVSLHCR (UniProt Q99575)
probe-labelled cysteine peptide fold change (10 µM): 0.257
probe-labelled cysteine peptide fold change (50 µM): -0.0829

POLR1E_Q9GZS1_14_WQYCGAPDGSQR (UniProt Q9GZS1)
probe-labelled cysteine peptide fold change (10 µM): -0.143
probe-labelled cysteine peptide fold change (50 µM): 0.224

PPID_Q08752_275+282_LQPIALSCVLNIGACK (UniProt Q08752)
probe-labelled cysteine peptide fold change (10 µM): 0.649
probe-labelled cysteine peptide fold change (50 µM): 0.0405

PPFIBP2_Q8ND30_145_DLEVCLEGHQVK (UniProt Q8ND30)
probe-labelled cysteine peptide fold change (10 µM): -6.33e-05
probe-labelled cysteine peptide fold change (50 µM): -0.0441

POLR2B_P30876_892_RDCSTFLR (UniProt P30876)
probe-labelled cysteine peptide fold change (10 µM): -0.18
probe-labelled cysteine peptide fold change (50 µM): 0.00776

POLR2B_P30876_1093_DCQIAHGAAQFLR (UniProt P30876)
probe-labelled cysteine peptide fold change (10 µM): -0.149
probe-labelled cysteine peptide fold change (50 µM): -0.303

PPA1_Q15181_113+114+123_HTGCCGDNDPIDVCEIGSK (UniProt Q15181)
probe-labelled cysteine peptide fold change (10 µM): -0.667
probe-labelled cysteine peptide fold change (50 µM): -0.756

POLR1D_P0DPB6_68_NPEVEFCGYTTTHPSESK (UniProt P0DPB6)
probe-labelled cysteine peptide fold change (10 µM): 0.12
probe-labelled cysteine peptide fold change (50 µM): -0.0111

PPIF_P30405_104_VIPSFMCQAGDFTNHNGTGGK (UniProt P30405)
probe-labelled cysteine peptide fold change (10 µM): 0.00215
probe-labelled cysteine peptide fold change (50 µM): -0.00273

POLR1B_Q9H9Y6_1101_KYNCTLCSR (UniProt Q9H9Y6)
probe-labelled cysteine peptide fold change (10 µM): 0.0656
probe-labelled cysteine peptide fold change (50 µM): -0.378

POLD3_Q15054_129_SNLQNCSK (UniProt Q15054)
probe-labelled cysteine peptide fold change (10 µM): -0.199
probe-labelled cysteine peptide fold change (50 µM): -0.204

PPID_Q08752_282_LQPIALSCVLNIGACK (UniProt Q08752)
probe-labelled cysteine peptide fold change (10 µM): 0.305
probe-labelled cysteine peptide fold change (50 µM): 0.183

POLR1B_Q9H9Y6_1070_SVAHVCVK (UniProt Q9H9Y6)
probe-labelled cysteine peptide fold change (10 µM): 0.11
probe-labelled cysteine peptide fold change (50 µM): -0.092

POGZ_Q7Z3K3_547_QFSTPFQLQCHLENVHSPYESTTK (UniProt Q7Z3K3)
probe-labelled cysteine peptide fold change (10 µM): 0.115
probe-labelled cysteine peptide fold change (50 µM): -0.262

POLR2B_P30876_224_SCLENSSRPTSTIWVSMLAR (UniProt P30876)
probe-labelled cysteine peptide fold change (10 µM): -0.039
probe-labelled cysteine peptide fold change (50 µM): -0.0122

POLR2A_P24928_1050_STLCSR (UniProt P24928)
probe-labelled cysteine peptide fold change (10 µM): -0.0683
probe-labelled cysteine peptide fold change (50 µM): -0.0587

POGZ_Q7Z3K3_624_HLLCPYCLK (UniProt Q7Z3K3)
probe-labelled cysteine peptide fold change (10 µM): -0.154
probe-labelled cysteine peptide fold change (50 µM): -0.364

POLR1E_Q9GZS1_138_MDSCIEAFGTTK (UniProt Q9GZS1)
probe-labelled cysteine peptide fold change (10 µM): -0.325
probe-labelled cysteine peptide fold change (50 µM): -0.495

POLD1_P28340_319_VLSFDIECAGR (UniProt P28340)
probe-labelled cysteine peptide fold change (10 µM): -0.0702
probe-labelled cysteine peptide fold change (50 µM): -0.202

PPFIBP1_Q86W92_926_QEDGEEYVCPMELGQASGSASK (UniProt Q86W92)
probe-labelled cysteine peptide fold change (10 µM): -0.214
probe-labelled cysteine peptide fold change (50 µM): -0.371

POLG_P54098_647_LPTGTTLESAGVVCPYR (UniProt P54098)
probe-labelled cysteine peptide fold change (10 µM): -0.484
probe-labelled cysteine peptide fold change (50 µM): -0.992

PPIG_Q13427_63_SCLFHR (UniProt Q13427)
probe-labelled cysteine peptide fold change (10 µM): 0.0394
probe-labelled cysteine peptide fold change (50 µM): -0.418

PPIL1_Q9Y3C6_133_VCQGIGMVNR (UniProt Q9Y3C6)
probe-labelled cysteine peptide fold change (10 µM): 0.145
probe-labelled cysteine peptide fold change (50 µM): 0.0313

POLDIP3_Q9BY77_301_VTEEDIVELFCVCGALK (UniProt Q9BY77)
probe-labelled cysteine peptide fold change (10 µM): 0.0886
probe-labelled cysteine peptide fold change (50 µM): -0.0165

POLR2B_P30876_622_ICRPLLIVEK (UniProt P30876)
probe-labelled cysteine peptide fold change (10 µM): -0.0725
probe-labelled cysteine peptide fold change (50 µM): -0.00415

POLG_P54098_760_DGNSCNVGSPFAK (UniProt P54098)
probe-labelled cysteine peptide fold change (10 µM): -0.0957
probe-labelled cysteine peptide fold change (50 µM): -0.503

POGZ_Q7Z3K3_621+624_HLLCPYCLK (UniProt Q7Z3K3)
probe-labelled cysteine peptide fold change (10 µM): -0.0282
probe-labelled cysteine peptide fold change (50 µM): -0.0733

POMGNT1_Q8WZA1_254_TDVPLSSAEEAECHWADTELNR (UniProt Q8WZA1)
probe-labelled cysteine peptide fold change (10 µM): -0.182
probe-labelled cysteine peptide fold change (50 µM): -0.0484

POP1_Q99575_242_CLLQDLSYYCCLELK (UniProt Q99575)
probe-labelled cysteine peptide fold change (10 µM): 0.0894
probe-labelled cysteine peptide fold change (50 µM): 0.0383

POLD1_P28340_1026+1029_TVLSHQGAVCEFCQPR (UniProt P28340)
probe-labelled cysteine peptide fold change (10 µM): -0.235
probe-labelled cysteine peptide fold change (50 µM): -0.439

PPIL4_Q8WUA2_245_TQAILLEMVGDLPDADIKPPENVLFVCK (UniProt Q8WUA2)
probe-labelled cysteine peptide fold change (10 µM): 0.611
probe-labelled cysteine peptide fold change (50 µM): 0.292

POLR2D_O15514_99+104_FELACLANLCPETAEESK (UniProt O15514)
probe-labelled cysteine peptide fold change (10 µM): 0.0212
probe-labelled cysteine peptide fold change (50 µM): 0.12

PPA1_Q15181_114_HTGCCGDNDPIDVCEIGSK (UniProt Q15181)
probe-labelled cysteine peptide fold change (10 µM): 0.105
probe-labelled cysteine peptide fold change (50 µM): 0.181

POLR2A_P24928_71_CQTCAGNMTECPGHFGHIELAK (UniProt P24928)
probe-labelled cysteine peptide fold change (10 µM): -0.172
probe-labelled cysteine peptide fold change (50 µM): -0.0688

POTEJ_P0CG39_880_LCYVALDFEQEMAMVASSSSLEK (UniProt P0CG39)
probe-labelled cysteine peptide fold change (10 µM): 0.403
probe-labelled cysteine peptide fold change (50 µM): 0.222

PPIC_P45877_191_VIDGMTVVHSIELQATDGHDRPLTNCSIINSGK (UniProt P45877)
probe-labelled cysteine peptide fold change (10 µM): 0.132
probe-labelled cysteine peptide fold change (50 µM): -0.169

POLR3B_Q9NW08_1054_DCLIGYGASMLLLER (UniProt Q9NW08)
probe-labelled cysteine peptide fold change (10 µM): 0.354
probe-labelled cysteine peptide fold change (50 µM): 0.0801
